Data from US8957215B2, “Heteroaryl substituted benzothiazoles” (Navidea Biopharmaceuticals, Inc., priority 2006, dated 2015).
At least one compound was matched to its structure with a doubt left.

Protein sequences, listed by entry. Tags and fused reporters are not part of them. Residues count along the entry.
UniProt P05067, 672-711 limits assumed: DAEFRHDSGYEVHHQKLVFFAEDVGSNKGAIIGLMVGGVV

What was measured:
[1] = target: T1, synthetic Aβ 1-40 (Homo sapiens, UniProt P05067); assay: Competition binding assay with [N-methyl-^3H3]-2-(6-methylamino-pyridin-3-yl)-benzothiazol-6-ol as radioligand; conditions: ^3H-labeled example 32 as radioligand, FIG. 2
T1 construct: using synthetic Aβ 1-40 in 2.7 nM of [^3H]PIB
Experimental: Competition binding was performed in 384-well FB filter plates using synthetic Aβ 1-40 in 2.7 nM of [^3H]PIB (or another ^3H-labeled radioligand when so mentioned) in phosphate buffer at pH 7.5, by adding various concentrations of non-radioactive compounds originally dissolved in DMSO. The binding mixture was incubated for 30 min at room temperature, followed by vacuum filtration, and subsequentially by washing twice with 1% Triton-X100. Scintillation fluid was thereafter added to the collected Aβ 1-40 on the filter plate, and the activity of the bound remaining radioligand ([^3H]PIB or another ^3H-labeled radioligand) was measured using 1450 Microbeta from PerkinElmer.
Specific binding was determined according to the competition binding assay described herein. The determined IC50's in the competition binding assays (using [^3H]PIB as radioligand) of 5 compounds of the present invention are shown in Table 1. Results (activity of remaining [^3H]PIB versus increasing concentration of non-labeled compounds) from typical competition assay experiments are exemplified in FIG. 1. In a similar way, competition studies with ^3H-labeled heteroaryl substituted benzthiazole derivates of the present invention were also conducted. Such results, from a typical competition study, are examplified in FIG. 2. […]

[2] = tested on: amyloid plaques in post-mortem human AD brains; assay: Binding to amyloid plaques in post-mortem human AD brain sections; conditions: superficial cortical layers, with or without 1 μM PIB
Experimental: Slide-mounted brain sections (10 μm) from APP/PS1 transgenic mice were collected at the level of the lateral septum (bregma+0.98 mm; see Paxinos and Franklin, 2001). Human cortical sections (7 μm) from two AD patients and 1 control subject were obtained from a Dutch tissue bank.
Sections were preincubated for 30 minutes at room temperature in 50 mM Tris HCl (pH 7.4) in the presence or absence of 1 μM PIB. Sections were transferred to buffer containing tritium-labeled compound (1 nM) with or without PIB (1 μM) and incubated for 30 minutes at room temperature. Incubation was terminated by 3 consecutive 10 minute rinses in buffer (1° C.) followed by a rapid rinse in distilled water (1° C.). Sections were air dried in front of a fan. Dried sections and plastic tritium standards (Amersham microscales-^3H) were apposed to phosphoimage plates (Fuji) in a cassette and exposed overnight. The following morning, the image plates were processed with a Fuji phosphoimager (BAS 2500) using BAS Reader software. The resulting image was converted to TIF format using Aida software, optimized with Adobe Photoshop (v 8.0) and quantified using Image-J (NIH). Data were statistically analyzed using Excel.

Row | SMILES | displacement of [N-methyl-^3H3]-2-(6-methylamino-pyridin-3-yl)-benzothiazol-6-ol [1] | ratio of total binding compared to nonspecific binding [2]
1 | CNc1ccc(-c2nc3ccc(O)cc3s2)cn1 [Example 27, 2-[6-(Methylamino)pyridin-3-yl]-1,3-benzothiazol-6-ol] | displaced | 
2 | [3H]C([3H])([3H])Nc1ccc(-c2nc3ccc(O)cc3s2)cn1 [Example 32, [N-Methyl-^3H3]-2-(6-Methylamino-pyridin-3-yl)-benzothiazol-6-ol] |  | 10.78:1
